Data: patent US20250154171A1, “RAS INHIBITORS” (Revolution Medicines, Inc., priority 2023, published 2025)
Some of these results come from one statement about several compounds together.

Protein sequences, listed by entry. Tags and fused reporters are not part of them. Lines headed by an entry give the natural chain unless they say otherwise; changes in a name come on top. Residues count along the entry.
UniProt P01116, 1-188 isoform P01116-2 G12V: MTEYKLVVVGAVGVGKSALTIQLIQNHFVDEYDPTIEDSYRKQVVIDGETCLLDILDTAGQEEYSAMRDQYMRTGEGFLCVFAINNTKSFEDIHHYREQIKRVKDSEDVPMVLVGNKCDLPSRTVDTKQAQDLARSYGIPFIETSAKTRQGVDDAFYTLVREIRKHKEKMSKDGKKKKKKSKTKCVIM
UniProt P62937, whole entry: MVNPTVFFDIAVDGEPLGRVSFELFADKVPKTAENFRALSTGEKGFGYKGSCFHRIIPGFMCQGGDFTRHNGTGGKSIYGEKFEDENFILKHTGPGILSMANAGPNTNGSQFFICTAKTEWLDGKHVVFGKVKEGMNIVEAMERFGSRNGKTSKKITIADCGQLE

Key:
Capan-1 (K-Ras G12V) = test: CellTiter-Glo cell viability assay, Capan-1; assay type: cell-based, human; details: 5-day treatment, Capan-1 versus A375
K-RasG12V = K-RasG12V (Homo sapiens, UniProt P01116+P62937, G12V); test: Disruption of BRAF RBD interaction with K-Ras (TR-FRET / MOA assay), K-RasG12V; assay type: biochemical; details: TR-FRET with cyclophilin A and GST-BRAF RBD, read-out: IC50 with respect to K-RasG12V (disruption of BRAF RBD interaction)

CO[C@@H](C)c1ncccc1-c1c2c3cc(ccc3n1[C@H]1C[C@H](C#N)C1)-c1coc(n1)[C@@H](N1CC3(COC3)C1)[C@H](NC(=O)[C@H]1[C@H](C)[C@@H]1C)C(=O)N1CCC[C@H](N1)C(=O)OCC(C)(C)C2 (racemic) [Example A65]
decrease in cell viability with respect to KRAS G12V (Capan-1) versus wild-type KRAS (A375) (Capan-1 (K-Ras G12V)): greater decrease in cell viability | IC50 (K-RasG12V): < 1 µM

CO[C@@H](C)c1ncc(N2CCN(C3CC3)CC2)cc1-c1c2c3cc(ccc3n1CCOC1CCOCC1)-c1coc(n1)[C@@H](N1CC3(COC3)C1)[C@H](NC(=O)C13CC(C1)C(C)(C)O3)C(=O)N1N[C@H](C(=O)OCC(C)(C)C2)C2CC1C2 (racemic) [Example A66]
decrease in cell viability with respect to KRAS G12V (Capan-1) versus wild-type KRAS (A375) (Capan-1 (K-Ras G12V)): greater decrease in cell viability | IC50 (K-RasG12V): < 1 µM

CO[C@@H](C)c1ncc(N2CCN(C3CC3)CC2)cc1-c1c2c3cc(ccc3n1CCOC1CCOCC1)-c1coc(n1)[C@@H](N1CC3(COC3)C1)[C@H](NC(=O)[C@@H]1OC[C@@H]1C)C(=O)N1N[C@H](C(=O)OCC(C)(C)C2)C2CC1C2 (racemic) [Example A67]
decrease in cell viability with respect to KRAS G12V (Capan-1) versus wild-type KRAS (A375) (Capan-1 (K-Ras G12V)): greater decrease in cell viability | IC50 (K-RasG12V): < 1 µM

CO[C@@H](C)c1ncc(N2CCN(C3CC3)CC2)cc1-c1c2c3cc(ccc3n1CCOC1CCOCC1)-c1coc(n1)[C@@H](N1CC3(COC3)C1)[C@H](NC(=O)[C@H]1[C@@H]3COC[C@@H]31)C(=O)N1CCC[C@H](N1)C(=O)OCC(C)(C)C2 (racemic) [Example A69]
decrease in cell viability with respect to KRAS G12V (Capan-1) versus wild-type KRAS (A375) (Capan-1 (K-Ras G12V)): greater decrease in cell viability | IC50 (K-RasG12V): < 1 µM

CO[C@@H](C)c1ncccc1-c1c2c3cc(ccc3n1CCOC1CCOCC1)-c1coc(n1)[C@@H](N1CC3(COC3)C1)[C@H](NC(=O)[C@H]1[C@@H]3COC[C@@H]31)C(=O)N1N[C@H](C(=O)OCC(C)(C)C2)C2CC1C2 (racemic) [Example A70]
decrease in cell viability with respect to KRAS G12V (Capan-1) versus wild-type KRAS (A375) (Capan-1 (K-Ras G12V)): greater decrease in cell viability | IC50 (K-RasG12V): < 1 µM

CO[C@@H](C)c1ncccc1-c1c2c3cc(ccc3n1CCOC1CCOCC1)-c1coc(n1)[C@@H](N1CC3(COC3)C1)[C@H](NC(=O)[C@H]1C[C@@H]1C)C(=O)N1N[C@H](C(=O)OCC(C)(C)C2)C2CC1C2 (racemic) [Example A71]
decrease in cell viability with respect to KRAS G12V (Capan-1) versus wild-type KRAS (A375) (Capan-1 (K-Ras G12V)): greater decrease in cell viability | IC50 (K-RasG12V): < 1 µM

CO[C@@H](C)c1ncccc1-c1c2c3cc(ccc3n1CCOC1CCOCC1)-c1coc(n1)[C@@H](N1CC3(COC3)C1)[C@H](NC(=O)[C@H]1[C@H](C)[C@@H]1C)C(=O)N1N[C@H](C(=O)OCC(C)(C)C2)C2CC1C2 (racemic) [Example A72]
decrease in cell viability with respect to KRAS G12V (Capan-1) versus wild-type KRAS (A375) (Capan-1 (K-Ras G12V)): greater decrease in cell viability | IC50 (K-RasG12V): < 1 µM

CO[C@@H](C)c1ncccc1-c1c2c3cc(ccc3n1CCOC1CCOCC1)-c1csc(n1)[C@@H](N1CC3(CCCO3)C1)[C@H](NC(=O)C13CC(C)(C1)[C@H](C)O3)C(=O)N1CCC[C@H](N1)C(=O)OCC(C)(C)C2 (racemic) [Example A74]
decrease in cell viability with respect to KRAS G12V (Capan-1) versus wild-type KRAS (A375) (Capan-1 (K-Ras G12V)): greater decrease in cell viability | IC50 (K-RasG12V): < 1 µM

CO[C@@H](C)c1ncccc1-c1c2c3cc(ccc3n1[C@H]1C[C@@H](C#N)C1)-c1coc(n1)[C@@H](N1CC3(COC3)C1)[C@H](NC(=O)[C@H]1[C@H](C)[C@@H]1C)C(=O)N1CCC[C@H](N1)C(=O)OCC(C)(C)C2 (racemic) [Example A75]
decrease in cell viability with respect to KRAS G12V (Capan-1) versus wild-type KRAS (A375) (Capan-1 (K-Ras G12V)): greater decrease in cell viability | IC50 (K-RasG12V): < 1 µM

CO[C@@H](C)c1ncc(N2CCN(C3CC3)CC2)cc1-c1c2c3cc(ccc3n1CCOC1CCOCC1)-c1coc(n1)[C@@H](N1CC3(COC3)C1)[C@H](NC(=O)[C@H]1C[C@@H]1C)C(=O)N1CCC[C@H](N1)C(=O)OCC(C)(C)C2 (racemic) [Example A76]
decrease in cell viability with respect to KRAS G12V (Capan-1) versus wild-type KRAS (A375) (Capan-1 (K-Ras G12V)): greater decrease in cell viability | IC50 (K-RasG12V): < 1 µM

CO[C@@H](C)c1ncc(N2CCN(C3CC3)CC2)cc1-c1c2c3cc(ccc3n1CCOC1CCOCC1)-c1coc(n1)[C@@H](N1CC3(COC3)C1)[C@H](NC(=O)[C@H]1[C@H](C)[C@@H]1C)C(=O)N1CCC[C@H](N1)C(=O)OCC(C)(C)C2 (racemic) [Example A77]
decrease in cell viability with respect to KRAS G12V (Capan-1) versus wild-type KRAS (A375) (Capan-1 (K-Ras G12V)): greater decrease in cell viability | IC50 (K-RasG12V): < 1 µM

CO[C@@H](C)c1ncc(N2CCN(C3CC3)CC2)cc1-c1c2c3cc(ccc3n1CCO[C@H]1CCOC(C)(C)C1)-c1coc(n1)[C@@H](N1CC3(COC3)C1)[C@H](NC(=O)[C@@H]1[C@@H](C)[C@H]1[C@H]1CCCO1)C(=O)N1CC3CC(C3)(N1)C(=O)OCC(C)(C)C2 (racemic) [Example A79]
decrease in cell viability with respect to KRAS G12V (Capan-1) versus wild-type KRAS (A375) (Capan-1 (K-Ras G12V)): greater decrease in cell viability | IC50 (K-RasG12V): < 1 µM

CO[C@@H](C)c1ncccc1-c1c2c3cc(ccc3n1C1CN(C3CC3)C1)-c1coc(n1)[C@@H](N1CC3(COC3)C1)[C@H](NC(=O)[C@H]1[C@H](C)[C@@H]1C)C(=O)N1N[C@H](C(=O)OCC(C)(C)C2)C2CC1C2 (racemic) [Example A80]
decrease in cell viability with respect to KRAS G12V (Capan-1) versus wild-type KRAS (A375) (Capan-1 (K-Ras G12V)): greater decrease in cell viability | IC50 (K-RasG12V): < 1 µM

CO[C@@H](C)c1ncccc1-c1c2c3cc(ccc3n1C1CN(C3CC3)C1)-c1coc(n1)[C@@H](N1CC3(COC3)C1)[C@H](NC(=O)[C@H]1[C@H](C)[C@@H]1C)C(=O)N1CCC[C@H](N1)C(=O)OCC(C)(C)C2 (racemic) [Example A81]
decrease in cell viability with respect to KRAS G12V (Capan-1) versus wild-type KRAS (A375) (Capan-1 (K-Ras G12V)): greater decrease in cell viability | IC50 (K-RasG12V): < 1 µM

COC1CN([C@@H]2c3nc(co3)-c3ccc4c(c3)c(c(-c3cccnc3[C@H](C)OC)n4C3CN(C4CC4)C3)CC(C)(C)COC(=O)[C@@H]3CCCN(N3)C(=O)[C@H]2NC(=O)[C@H]2[C@H](C)[C@@H]2C)C1 (racemic) [Example A82]
decrease in cell viability with respect to KRAS G12V (Capan-1) versus wild-type KRAS (A375) (Capan-1 (K-Ras G12V)): greater decrease in cell viability | IC50 (K-RasG12V): < 1 µM

CO[C@@H](C)c1ncccc1-c1c2c3cc(ccc3n1C1CN(C3CC3)C1)-c1csc(n1)[C@@H](N1CC3(COC3)C1)[C@H](NC(=O)[C@H]1[C@H](C)[C@@H]1C)C(=O)N1CCC[C@H](N1)C(=O)OCC(C)(C)C2 (racemic) [Example A83]
decrease in cell viability with respect to KRAS G12V (Capan-1) versus wild-type KRAS (A375) (Capan-1 (K-Ras G12V)): greater decrease in cell viability | IC50 (K-RasG12V): < 1 µM

CO[C@@H](C)c1ncccc1-c1c2c3cc(ccc3n1C1CC1)-c1coc(n1)[C@@H](N1CC3(COC3)C1)[C@H](NC(=O)C13CC(C1)C(C)(C)O3)C(=O)N1N[C@H](C(=O)OCC(C)(C)C2)C2CC1C2 (racemic) [Example A84]
decrease in cell viability with respect to KRAS G12V (Capan-1) versus wild-type KRAS (A375) (Capan-1 (K-Ras G12V)): greater decrease in cell viability | IC50 (K-RasG12V): < 1 µM

CO[C@@H](C)c1ncccc1-c1c2c3cc(ccc3n1C1COC1)-c1coc(n1)[C@@H](N1CC3(COC3)C1)[C@H](NC(=O)[C@@H]1OC[C@@H]1C)C(=O)N1N[C@H](C(=O)OCC(C)(C)C2)C2CC1C2 (racemic) [Example A85]
decrease in cell viability with respect to KRAS G12V (Capan-1) versus wild-type KRAS (A375) (Capan-1 (K-Ras G12V)): greater decrease in cell viability | IC50 (K-RasG12V): < 1 µM

CO[C@@H](C)c1ncccc1-c1c2c3cc(ccc3n1CC(F)(F)F)-c1coc(n1)[C@@H](N1CC3(COC3)C1)[C@H](NC(=O)[C@@H]1OC[C@@H]1C)C(=O)N1CCC[C@H](N1)C(=O)OCC(C)(C)C2 (racemic) [Example A86]
decrease in cell viability with respect to KRAS G12V (Capan-1) versus wild-type KRAS (A375) (Capan-1 (K-Ras G12V)): greater decrease in cell viability | IC50 (K-RasG12V): < 1 µM

CCn1c(-c2cccnc2[C@H](C)OC)c2c3cc(ccc31)-c1coc(n1)[C@@H](N1CC3(COC3)C1)[C@H](NC(=O)[C@H]1[C@@H]3COC[C@@H]31)C(=O)N1CCC[C@H](N1)C(=O)OCC(C)(C)C2 (racemic) [Example A87]
decrease in cell viability with respect to KRAS G12V (Capan-1) versus wild-type KRAS (A375) (Capan-1 (K-Ras G12V)): greater decrease in cell viability | IC50 (K-RasG12V): < 1 µM

CO[C@@H](C)c1ncccc1-c1c2c3cc(ccc3n1C1CC1)-c1coc(n1)[C@@H](N1CCC1)[C@H](NC(=O)[C@H]1[C@H](C)[C@@H]1C)C(=O)N1CCC[C@H](N1)C(=O)OCC(C)(C)C2 (racemic) [Example A88]
decrease in cell viability with respect to KRAS G12V (Capan-1) versus wild-type KRAS (A375) (Capan-1 (K-Ras G12V)): greater decrease in cell viability | IC50 (K-RasG12V): < 1 µM

CO[C@@H](C)c1ncc(C2CCN(C3CC3)CC2)cc1-c1c2c3cc(ccc3n1CCO[C@H]1CCOC(C)(C)C1)-c1coc(n1)[C@@H](N1CC3(COC3)C1)[C@H](NC(=O)C13CC(C1)C(C)(C)O3)C(=O)N1N[C@H](C(=O)OCC(C)(C)C2)C2CC1C2 (racemic) [Example A89]
decrease in cell viability with respect to KRAS G12V (Capan-1) versus wild-type KRAS (A375) (Capan-1 (K-Ras G12V)): greater decrease in cell viability | IC50 (K-RasG12V): < 1 µM

CO[C@@H](C)c1ncc(C2CCN(C3CC3)CC2)cc1-c1c2c3cc(ccc3n1CCOC1CCOCC1)-c1csc(n1)[C@@H](N1CC3(CCOC3)C1)[C@H](NC(=O)[C@H]1C[C@@H](C)O1)C(=O)N1CCC[C@H](N1)C(=O)OCC(C)(C)C2 (racemic) [Example A90]
decrease in cell viability with respect to KRAS G12V (Capan-1) versus wild-type KRAS (A375) (Capan-1 (K-Ras G12V)): greater decrease in cell viability | IC50 (K-RasG12V): < 1 µM

CO[C@@H](C)c1ncccc1-c1c2c3cc(ccc3n1CCOC1CCOCC1)-c1csc(n1)[C@@H](N1CC3(CCOC3)C1)[C@H](NC(=O)[C@@H]1OC[C@@H]1C)C(=O)N1CCC[C@H](N1)C(=O)OCC(C)(C)C2 (racemic) [Example A91]
decrease in cell viability with respect to KRAS G12V (Capan-1) versus wild-type KRAS (A375) (Capan-1 (K-Ras G12V)): greater decrease in cell viability | IC50 (K-RasG12V): < 1 µM

CO[C@@H](C)c1ncc([C@H]2CCN(C3COC3)C2)cc1-c1c2c3cc(ccc3n1CCOC1CCOCC1)-c1csc(n1)[C@@H](N1CC(C)(OC)C1)[C@H](NC(=O)[C@@H]1OC[C@@H]1C)C(=O)N1CCC[C@H](N1)C(=O)OCC(C)(C)C2 (racemic) [Example A92]
decrease in cell viability with respect to KRAS G12V (Capan-1) versus wild-type KRAS (A375) (Capan-1 (K-Ras G12V)): greater decrease in cell viability | IC50 (K-RasG12V): < 1 µM

CO[C@@H](C)c1ncc([C@@H]2CCN(C3COC3)C2)cc1-c1c2c3cc(ccc3n1CCOC1CCOCC1)-c1csc(n1)[C@@H](N1CC(C)(OC)C1)[C@H](NC(=O)[C@@H]1OC[C@@H]1C)C(=O)N1CCC[C@H](N1)C(=O)OCC(C)(C)C2 (racemic) [Example A93]
decrease in cell viability with respect to KRAS G12V (Capan-1) versus wild-type KRAS (A375) (Capan-1 (K-Ras G12V)): greater decrease in cell viability | IC50 (K-RasG12V): < 1 µM
